From PubChem BioAssay AID328 (DTP/NCI, 2004)
The list does not hold the whole screen: it gathers tests that were run many times, whatever their T/C, doses with no T/C, and many T/C values between a quarter and a half above the control. Other doses and runs of a compound stand elsewhere. T/C gives the treated animals as a percentage of the vehicle group. Some doses have a count of surviving animals in place of a T/C: the source files T/C as zero there, which appears to mark a toxic dose or a test without result, not a measured value. Some survivor counts are full or nearly so, which does not show that the dose was tolerated: the source hardly ever lists a survival T/C far under the control, and the zero likely stands for such cases as well. Survivors were counted at the toxicity check, usually on the fifth day, unless a day is given; later deaths do not show. Schedules are NCI's codes, read here as Q, the interval in days (D) or hours (H), X, the number of doses. Where survival is the endpoint, this PubChem deposit counts one and a half times the control or more as active, and values a quarter to a half above the control carry no call in these data; other NCI protocols may use other cut-offs. Some T/C values carry the count of animals alive at the toxicity check (mostly the fifth day); without a count, all were alive then. Some doses were run more than once; the results are listed from low to high.

Test system: BDF1 mice, P388 leukemia ip, median survival T/C
Assay: NCI In Vivo Anticancer Drug Screen. Data for tumor model P388 Leukemia (intraperitoneal) in B6D2F1 (BDF1) mice
Conditions: T/C endpoint: median survival time, higher T/C = longer survival
Description: The antitumor activity of compounds was measured in mice bearing transplantable tumors. Survival or tumor size were measured and the results are expressed as the measurement made in the treated group (T) divided by the measurement made in the vehicle treated control group (C). The tumor model used in this assay is P388 Leukemia (intraperitoneal) in B6D2F1 (BDF1) mice

[1] = dose: 25.0 mg/kg/injection, schedule: Q01DX009 (ip), vehicle: Klucel (hydroxypropylcellulose) (HPC)
[2] = dose: 50.0 mg/kg/injection, schedule: Q01DX009 (ip), vehicle: Klucel (hydroxypropylcellulose) (HPC)
[3] = dose: 100.0 mg/kg/injection, schedule: Q01DX009 (ip), vehicle: saline
[4] = dose: 200.0 mg/kg/injection, schedule: Q04DX003 (ip), vehicle: saline with Tween-80
[5] = dose: 400.0 mg/kg/injection, schedule: Q04DX003 (ip), vehicle: saline with Tween-80
[6] = dose: 20.0 mg/kg/injection, schedule: Q01DX009 (ip), vehicle: Klucel (hydroxypropylcellulose) (HPC)
[7] = dose: 100.0 mg/kg/injection, schedule: Q04DX003 (ip), vehicle: Klucel (hydroxypropylcellulose) (HPC)
[8] = dose: 200.0 mg/kg/injection, schedule: Q01DX009 (ip), vehicle: saline with Tween-80
[9] = dose: 400.0 mg/kg/injection, schedule: Q01DX001 (ip), vehicle: saline with Tween-80
[10] = dose: 50.0 mg/kg/injection, schedule: Q04DX003 (ip), vehicle: saline with Tween-80
[11] = dose: 50.0 mg/kg/injection, schedule: Q01DX009 (ip), vehicle: saline
[12] = dose: 200.0 mg/kg/injection, schedule: Q01DX009 (ip), vehicle: saline

CCCCSC1=CC(=O)c2ccccc2C1=O
survivor count [1]: 3 of 6
survivor count [2]: 0 of 6

CC(C)=NNC(=O)c1ccccc1
survivor count [3]: 6 of 6
survivor count [4]: 4 of 6
survivor count [5]: 0 of 6

COc1ccc(/C=C/c2ccc3ccccc3[n+]2C)c(OC)c1OC
T/C (dose: 2.5 mg/kg/injection, schedule: Q01DX009 (ip), vehicle: Klucel (hydroxypropylcellulose) (HPC)): 125 % of control
T/C (dose: 10.0 mg/kg/injection, schedule: Q01DX009 (ip), vehicle: Klucel (hydroxypropylcellulose) (HPC)): 143 % of control
T/C [6]: 136 % of control
survivor count (dose: 40.0 mg/kg/injection, schedule: Q01DX009 (ip), vehicle: Klucel (hydroxypropylcellulose) (HPC)): 0 of 6

Oc1ccccc1C=NCCN1CC1.Oc1ccccc1C=NCCN1CC1.[Ni+2]
T/C [1]: 147 % of control
survivor count (dose: 25.0 mg/kg/injection, schedule: Q04DX003 (ip), vehicle: Klucel (hydroxypropylcellulose) (HPC)): 2 of 3
survivor count [2]: 0 of 3
T/C (dose: 50.0 mg/kg/injection, schedule: Q04DX003 (ip), vehicle: saline sonified): 146 % of control
survivor count [7]: 0 of 3
survivor count (dose: 100.0 mg/kg/injection, schedule: Q04DX003 (ip), vehicle: saline sonified): 1 of 6

Clc1ccc(-n2nnc3cc(Cl)ccc32)c(Cl)c1
survivor count (dose: 50.0 mg/kg/injection, schedule: Q01DX009 (ip), vehicle: saline with Tween-80): 7 of 7
survivor count [8]: 7 of 7

CC(C)(CC(=O)O)c1ccccc1
T/C (dose: 100.0 mg/kg/injection, schedule: Q04DX003 (ip), vehicle: saline): 128 % of control

CC(C)CC(C(N)=O)c1ccccc1 (stereo unspecified)
survivor count [9]: 0 of 6

Cc1cccc(C)c1NC(=O)N(CCCl)N=O
T/C [10]: 127 % of control
survivor count (dose: 100.0 mg/kg/injection, schedule: Q01DX009 (ip), vehicle: saline sonified): 5 of 6
survivor count (dose: 200.0 mg/kg/injection, schedule: Q01DX009 (ip), vehicle: saline sonified): 0 of 6
survivor count (dose: 400.0 mg/kg/injection, schedule: Q01DX009 (ip), vehicle: saline sonified): 0 of 6

CNC(=O)Oc1coc(CCl)cc1=O
T/C (dose: 16.5 mg/kg/injection, schedule: Q01DX009 (ip), vehicle: saline sonified): 135 % of control
T/C (dose: 25.0 mg/kg/injection, schedule: Q01DX009 (ip), vehicle: saline sonified): 140 % of control
T/C (dose: 37.5 mg/kg/injection, schedule: Q01DX009 (ip), vehicle: saline sonified): 130 % of control [5 of 6 alive]

c1ccc2c(c1)[nH]c1nc3ccncc3nc12
survivor count [4]: 5 of 6

CCOC(=O)C(C(=O)OCC)=C(C)C
T/C (dose: 100.0 mg/kg/injection, schedule: Q01DX009 (ip), vehicle: saline with Tween-80): 130 % of control
T/C [8]: 140 % of control

O=[N+]([O-])c1ccc(NS(=O)(=O)c2cc(Cl)ccc2Cl)c(C(F)(F)F)c1
survivor count [8]: 3 of 6

CC(C)=CC(=O)OCC1CC[N+](C)([O-])C1 (stereo unspecified)
survivor count [11]: 4 of 4
survivor count (dose: 400.0 mg/kg/injection, schedule: Q01DX001 (ip), vehicle: saline): 6 of 6
survivor count (dose: 1600.0 mg/kg/injection, schedule: Q01DX001 (ip), vehicle: saline): 0 of 6

CCCCCCCCN1CCCNCC1
survivor count [11]: 5 of 6
survivor count [3]: 0 of 6

NC(=S)N/N=C/c1ccc(C(F)(F)F)cn1
T/C (dose: 13.3 mg/kg/injection, schedule: Q01DX009 (ip), vehicle: Klucel (hydroxypropylcellulose) (HPC)): 127 % of control
T/C [6]: 132 % of control [4 of 6 alive]
survivor count (dose: 30.0 mg/kg/injection, schedule: Q01DX009 (ip), vehicle: Klucel (hydroxypropylcellulose) (HPC)): 4 of 6
survivor count (dose: 45.0 mg/kg/injection, schedule: Q01DX009 (ip), vehicle: Klucel (hydroxypropylcellulose) (HPC)): 1 of 6
survivor count (dose: 67.5 mg/kg/injection, schedule: Q01DX009 (ip), vehicle: Klucel (hydroxypropylcellulose) (HPC)): 0 of 6

CCC(=O)Oc1c(Cl)c(Cl)c(C#N)c(Cl)c1Cl
survivor count [5]: 5 of 6

Clc1nc2ccccc2nc1CI
T/C (dose: 4.12 mg/kg/injection, schedule: Q01DX009 (ip), vehicle: saline): 131 % of control
T/C (dose: 6.25 mg/kg/injection, schedule: Q01DX009 (ip), vehicle: saline with Tween-80): 140 % of control
T/C (dose: 6.25 mg/kg/injection, schedule: Q01DX009 (ip), vehicle: saline): 130 and 140 % of control [5 of 6 alive]
T/C (dose: 9.37 mg/kg/injection, schedule: Q01DX009 (ip), vehicle: saline): 136 % of control
survivor count (dose: 25.0 mg/kg/injection, schedule: Q01DX009 (ip), vehicle: saline with Tween-80): 6 of 6
survivor count (dose: 25.0 mg/kg/injection, schedule: Q01DX009 (ip), vehicle: saline): 1 of 6
survivor count [10]: 6 of 6
survivor count (dose: 80.0 mg/kg/injection, schedule: Q04DX003 (ip), vehicle: saline): 4 of 6
survivor count (dose: 100.0 mg/kg/injection, schedule: Q04DX003 (ip), vehicle: saline with Tween-80): 4 of 6
survivor count (dose: 120.0 mg/kg/injection, schedule: Q04DX003 (ip), vehicle: saline): 4 of 6
survivor count [4]: 0 of 6
survivor count [5]: 0 of 6

CCOCCOCCOCCCNCCCN1CC1
T/C (dose: 50.0 mg/kg/injection, schedule: Q04DX003 (ip), vehicle: saline): 147 % of control
survivor count [12]: 4 of 6

CCCCN(CCCC)CC(O)c1cc(Cl)cc2cccnc12 (stereo unspecified)
survivor count (dose: 12.5 mg/kg/injection, schedule: Q01DX009 (ip), vehicle: Klucel (hydroxypropylcellulose) (HPC)): 6 of 6
survivor count [7]: 2 of 6

ONc1nc(NO)c2[nH]cnc2n1
T/C (dose: 44.0 mg/kg/injection, schedule: Q01DX001 (ip), vehicle: water): 136 % of control
T/C (dose: 66.0 mg/kg/injection, schedule: Q01DX001 (ip), vehicle: water): 136 % of control
T/C (dose: 100.0 mg/kg/injection, schedule: Q01DX001 (ip), vehicle: water): 136 % of control
T/C (dose: 150.0 mg/kg/injection, schedule: Q01DX001 (ip), vehicle: water): 131 % of control

O=c1[nH]nc(CF)c(=O)[nH]1
T/C (dose: 6.0 mg/kg/injection, schedule: Q01DX009 (ip), vehicle: saline): 133 and 140 % of control
T/C (dose: 12.0 mg/kg/injection, schedule: Q01DX009 (ip), vehicle: saline): 127 and 133 % of control
survivor count (dose: 24.0 mg/kg/injection, schedule: Q01DX009 (ip), vehicle: saline): 6 of 6
survivor count (dose: 48.0 mg/kg/injection, schedule: Q01DX009 (ip), vehicle: saline): 6 of 6

[Cl][Hg][c]1ccc2ccccc2c1
survivor count (dose: 25.0 mg/kg/injection, schedule: Q01DX009 (ip), vehicle: gum acacia): 1 of 6
survivor count (dose: 50.0 mg/kg/injection, schedule: Q01DX009 (ip), vehicle: gum acacia): 0 of 6

OCC12CCCCC1CC1(CC2)OCCO1 (stereo unspecified)
survivor count [12]: 6 of 6

CC(c1ccccc1)c1ccc(O)cc1 (stereo unspecified)
survivor count (dose: 400.0 mg/kg/injection, schedule: Q04DX003 (ip), vehicle: saline): 6 of 6

Cc1nnc2c(Cl)nccn12
survivor count [9]: 0 of 6

Cc1cc(C)c(C#N)c([S][Sn]([Cl])([Cl])[S]c2nc(C)cc(C)c2C#N)n1
survivor count [5]: 1 of 6
